Experiment: general procedure: Fmoc solid-phase peptide synthesis; Fmoc-amide anchor resin; DIC/HOBt
Details: whole synthesis, scale 1 g resin (0.47 mmol/g)

Question: Which “final HPLC purity” value does the source give for Gly--Pro--Arg--Pro--Ala--NH2 here?
Answer: 95% pure
